Reference: publication PMC8537709
Construct, isoform or probe ends are uncertain for at least one entry.

Chains of the proteins cited; added tags and fusions are not shown. Chains listed by the source or under a name are the forms on record and can include a tag or linker.
Carcinoembryonic antigen (CEA) (human), one chain, as listed by the source: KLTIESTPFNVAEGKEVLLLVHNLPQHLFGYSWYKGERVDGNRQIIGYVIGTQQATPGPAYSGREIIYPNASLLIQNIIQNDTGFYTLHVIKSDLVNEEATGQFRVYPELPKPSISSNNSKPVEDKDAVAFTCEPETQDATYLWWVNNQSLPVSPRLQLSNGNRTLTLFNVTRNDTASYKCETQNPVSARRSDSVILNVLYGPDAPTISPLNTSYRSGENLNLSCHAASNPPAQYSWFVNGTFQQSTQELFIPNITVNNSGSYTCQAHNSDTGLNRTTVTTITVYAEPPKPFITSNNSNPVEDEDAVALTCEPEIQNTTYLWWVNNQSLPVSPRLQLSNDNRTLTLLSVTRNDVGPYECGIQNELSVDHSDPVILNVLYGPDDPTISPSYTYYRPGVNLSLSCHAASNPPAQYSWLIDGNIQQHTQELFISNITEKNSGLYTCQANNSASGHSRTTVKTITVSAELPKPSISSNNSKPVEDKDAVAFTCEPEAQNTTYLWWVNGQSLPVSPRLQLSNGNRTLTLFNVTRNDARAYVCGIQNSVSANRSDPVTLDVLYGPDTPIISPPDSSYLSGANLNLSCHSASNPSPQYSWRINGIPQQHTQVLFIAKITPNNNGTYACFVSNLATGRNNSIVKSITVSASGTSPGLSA

Tested on: Carcinoembryonic antigen (CEA) (human)
Assay: target-induced release of 4-nitrophenol (UV-vis, 318 nm) from aptamer/cDNA-gated magnetic mesoporous silica
Conditions: CEA 1.0 ng/mL, aptamer displaced from immobilized cDNA S2, no Kd; PBS 10 mM, pH 7.4; assay temperature not stated (aptamer loading and gating test at room temperature); commercial protein; protein details: GST tag N-terminus; single-stranded …

“ATACCAGCTTATTCAATT [CEA-specific aptamer]”: binds.
